This passage reports binding results from patent US12305200B2, “Methods and compositions for vault nanoparticle immobilization of therapeutic molecules and for vault targeting” (AUKERA, INC., priority 2017, dated 2025).

Amino acid sequences for entries named in this document (tags omitted).
UniProt P30550: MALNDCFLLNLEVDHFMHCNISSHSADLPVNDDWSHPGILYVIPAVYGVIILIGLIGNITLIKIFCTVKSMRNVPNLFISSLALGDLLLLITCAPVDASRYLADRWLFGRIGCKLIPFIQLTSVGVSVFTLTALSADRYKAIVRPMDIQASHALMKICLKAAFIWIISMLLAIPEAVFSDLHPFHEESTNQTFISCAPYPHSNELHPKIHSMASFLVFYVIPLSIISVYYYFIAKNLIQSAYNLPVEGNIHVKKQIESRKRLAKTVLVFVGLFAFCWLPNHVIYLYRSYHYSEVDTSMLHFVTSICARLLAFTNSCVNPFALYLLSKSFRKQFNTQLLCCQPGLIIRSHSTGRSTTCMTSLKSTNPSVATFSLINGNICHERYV

This experiment has as its target gastrin releasing peptide receptor (GRPR) (human) (UniProt P30550). Description: in vitro binding of DyLight-488 labelled vaults to GRPR-expressing PC-3 cells, epifluorescence microscopy.

No constants are given. Whether binding was seen depends on the method and setting. Some results given as binding are weak or reduced against the parent protein; the word gives no strength.

B1: rat vault nanoparticles modified to express the gastrin releasing peptide (GRP) ligand in the unstructured region of the shoulder domain (designed binder)
chain: MATEEAIIRIPPYHYIHVLDQNSNVSRVEVGPKTYIRQDNERVLFAPVRMVTVPPRHYCIVANPVSRDTQSSVLFDITGQVRLRHADQEIRLAQDPFPLYPGEVLEKDITPLQVVLPNTALHLKALLDFEDKNGDKVMAGDEWLFEGPGTYIPQKEVEVVEIIQATVIKQNQALRLRARKECFDREGKGRVTGEEWLVRSVGAYLPAVFEEVLDLVDAVILTEKTALHLRALQNFRDLRGVLHRTGEEWLVTVQDTEAHVPDVYEEVLGVVPITTLGPRHYCVILDPMGPDGKNQLGQKRVVKGEKSFFLQPGERLERGIQDVYVLSEQQGLLLKALQPLEEGESEEKVSHQAGDCWLIRGPLEYVPSAKVEVVEERQAIPLDQNEGIYVQDVKTGKVRAVIGSTYMLTQDEVLWEKELPSGVEELLNLGHDPLADRGQKGTAKPLQPSAPRNKTRVVSYRVPHNAAVQVYDYRAKRARVVFGPELVTLDPEEQFTVLSLSAGRPKRPHARRALCLLLGPDFFTDVITIETADHARLQLQLAYNWHFELKNRNDPAEAAKLFSVPDFVGDACKAIASRVRGAVASVTFDDFHKNSARIIRMAVFGFEMSEDTGSQWAVGHLMAPDGTLLPKARDQAVFPQNGLVVSSVDVQSVEPVDQRTRDALQRSVQLAIEITTNSQEAAAKHEAQRLEQEARGRLERQKILDQSEAEKARKELLELEAMSMAVESTGNAKAEAESRAEAARIEGEGSVLQAKLKAQALAIETEAELERVKKVREMELIYARAQLELEVSKAQQLANVEAKKFKEMTEALGPGTIRDLAVAGPEMQVKLLQSLGLKSTLITDGSSPINLFSTAFGLLGLGSDGQPPAQK
As to B1, the binding entry is “binds”.
